In all, about 300,000 compounds went through this assay and about 5,400 (1.8%) were called active. This list was built around the results that the source calls inconclusive (neither active nor inactive); the mix of calls is not that of the screen. Calls come from the whole dose curve; tested in HEK293 cells. Potencies beside an inconclusive call are fits to weak or partial responses and may not hold up.
Assay: qHTS for inhibitors of binding or entry into cells for Marburg Virus
Conditions: Marburg virus pseudotyped entry inhibition, cell reporter; activity change, negative = inhibition: at 37.8 µM (top of the series) unless noted
% is set by controls: 0 for no effect and ±100 for the full control effect; potency is the fitted concentration of half-maximal effect.

| Structure (SMILES) | Potency | activity change, negative = inhibition |
| --- | --- | --- |
| O=C(Cc1cccs1)N1CCC(c2nc3c(nnn3Cc3ccccc3)c(=O)[nH]2)CC1 | inconclusive: 5.8 µM [inhibitor, partial curve] |  |
| Cc1ccc(-n2c(-c3ccco3)n[nH]c2=S)cc1 | inconclusive: 35.5 µM [activator, single point] |  |
| Cc1ccc(-c2noc(CSc3nnc(Cc4ccccc4)n3-c3ccc(Cl)cc3)n2)cc1 | inconclusive: 23.1 µM [inhibitor, single point] |  |
| Cc1occc1C(=O)NNC(=S)Nc1ccccc1 |  | inactive: 8.41% |
| CN1CCN(C(=O)/C=C/c2ccc(Cl)cc2)CC1 | inconclusive: 35.5 µM [activator, single point] |  |
| CN(C)C(CNC(=S)Nc1cccc(Cl)c1)c1ccccc1 (stereo unspecified) | inconclusive: 22.4 µM [inhibitor, single point] |  |
| COc1ccc(S(=O)(=O)N2CCCCC2)cc1NC(=O)CSc1ncnc2ccccc12 | inconclusive: 7.08 µM [inhibitor, partial curve, poor fit] |  |
| COc1ccc(NC(=O)c2coc3ccccc23)cc1OC | inconclusive: 10.3 µM [activator, partial curve] |  |
| CCCCc1c(C)nc2ccc(C(=O)OCC)cc2c1Cl | inconclusive: 6.31 µM [activator, single point] |  |
| c1ccc(Nc2nc(-c3ccccc3)ns2)cc1 | active: 10 µM |  |
| COc1ccc(CN2CCN(Cc3cccc(Oc4ccccc4)c3)CC2)c(OC)c1OC | inconclusive: 14.1 µM [inhibitor, single point] |  |
| O=C(CSc1ccc(-c2ccc3c(c2)OCO3)nn1)Nc1nccs1 | inconclusive: 5.62 µM [inhibitor, full curve, poor fit] |  |
| Cc1cccc(NC(=O)NCC(F)(F)F)n1 | inconclusive: 29.1 µM [activator, single point] |  |
| O=C(CCCO)N/N=C/c1ccccc1[N+](=O)[O-] | inconclusive: 35.5 µM [activator, partial curve, poor fit] |  |
| CCn1ncc(C(=O)Nc2ccc(F)cc2)c1C | inconclusive: 2 µM [activator, partial curve, poor fit] |  |
| N=C(N)c1c(O)n(C2CCCCC2)c(=O)n(C2CCCCC2)c1=O | inconclusive: 14.1 µM [inhibitor, single point] |  |
| COc1ccc(-c2csc(-c3cccs3)n2)c(OC)c1 | inconclusive: 3.55 µM [activator, single point] |  |
| CCC(=Nc1ccc(OC)cc1OC)c1c(O)n(C2CCCCC2)c(=O)[nH]c1=O | inconclusive: 29.1 µM [inhibitor, single point] |  |
| CN(Cc1ccco1)C(=O)CSc1nc(C2CC2)n(-c2ccccc2)n1 | inconclusive: 2 µM [inhibitor, partial curve, poor fit] |  |
| CN(C)S(=O)(=O)c1ccc(N2CCCC2)c(C(=O)Nc2ccc(N3CCOCC3)cc2)c1 | inconclusive: 20 µM [activator, single point] |  |
| CCn1cc(CN2CCCC(C(=O)c3ccc(-c4ccccc4)cc3)C2)cn1 (stereo unspecified) | inconclusive: 35.5 µM [inhibitor, single point] |  |
| COc1ccc(C(=O)NCCCCc2ccccc2)cc1 | inconclusive: 0.562 µM [inhibitor, full curve, poor fit] |  |

In the list so far, 14 have nitrogen in an aromatic ring.

| Structure (SMILES) | Potency | activity change, negative = inhibition |
| --- | --- | --- |
| O=C(Cc1cccs1)N1CCC(c2nc3c(nnn3Cc3ccccc3)c(=O)[nH]2)CC1 | inconclusive: 5.8 µM [inhibitor, partial curve] |  |
| Cc1ccc(-n2c(-c3ccco3)n[nH]c2=S)cc1 | inconclusive: 35.5 µM [activator, single point] |  |
| Cc1ccc(-c2noc(CSc3nnc(Cc4ccccc4)n3-c3ccc(Cl)cc3)n2)cc1 | inconclusive: 23.1 µM [inhibitor, single point] |  |
| COc1ccc(S(=O)(=O)N2CCCCC2)cc1NC(=O)CSc1ncnc2ccccc12 | inconclusive: 7.08 µM [inhibitor, partial curve, poor fit] |  |
| CCCCc1c(C)nc2ccc(C(=O)OCC)cc2c1Cl | inconclusive: 6.31 µM [activator, single point] |  |
| c1ccc(Nc2nc(-c3ccccc3)ns2)cc1 | active: 10 µM |  |
| O=C(CSc1ccc(-c2ccc3c(c2)OCO3)nn1)Nc1nccs1 | inconclusive: 5.62 µM [inhibitor, full curve, poor fit] |  |
| Cc1cccc(NC(=O)NCC(F)(F)F)n1 | inconclusive: 29.1 µM [activator, single point] |  |
| CCn1ncc(C(=O)Nc2ccc(F)cc2)c1C | inconclusive: 2 µM [activator, partial curve, poor fit] |  |
| N=C(N)c1c(O)n(C2CCCCC2)c(=O)n(C2CCCCC2)c1=O | inconclusive: 14.1 µM [inhibitor, single point] |  |
| COc1ccc(-c2csc(-c3cccs3)n2)c(OC)c1 | inconclusive: 3.55 µM [activator, single point] |  |
| CCC(=Nc1ccc(OC)cc1OC)c1c(O)n(C2CCCCC2)c(=O)[nH]c1=O | inconclusive: 29.1 µM [inhibitor, single point] |  |
| CN(Cc1ccco1)C(=O)CSc1nc(C2CC2)n(-c2ccccc2)n1 | inconclusive: 2 µM [inhibitor, partial curve, poor fit] |  |
| CCn1cc(CN2CCCC(C(=O)c3ccc(-c4ccccc4)cc3)C2)cn1 (stereo unspecified) | inconclusive: 35.5 µM [inhibitor, single point] |  |

(more compounds)

| Structure (SMILES) | Potency | activity change, negative = inhibition |
| --- | --- | --- |
| O=C(NCCCN1CCOCC1)c1ccc2c(c1)N(Cc1ccccc1)CCS2 | inconclusive: 1.58 µM [inhibitor, partial curve, poor fit] |  |
| O=C(Nc1ccccc1NS(=O)(=O)c1ccc(F)cc1)C1CCC1 | inconclusive: 20 µM [inhibitor, single point] |  |
| COc1ccccc1-c1cc(C(=O)NC2CCCC2)no1 | inconclusive: 2.24 µM [activator, partial curve, poor fit] |  |
| CSc1nsc(SCC(=O)Nc2cccc(C(C)=O)c2)n1 |  | inactive: 3.15% |
| CSc1nccc(N2CCN(c3ccc(F)cc3)CC2)n1 | inconclusive: 7.08 µM [inhibitor, partial curve, poor fit] |  |
| CCOC(=O)C1(CC2CCCCO2)CCN(C2CCSCC2)CC1 (stereo unspecified) | inconclusive: 0.891 µM [inhibitor, partial curve, poor fit] |  |
| Cc1ccc(OCC(=O)Nc2ccc3c(c2)OCCO3)cc1C | inconclusive: 17.8 µM [inhibitor, single point] |  |
| Cc1cc(C(=O)COC(=O)c2cccc(O)c2)c(C)n1C1CC1 | inconclusive: 35.5 µM [inhibitor, single point] |  |
| C=C(C)CNC(=S)Nc1sc2c(c1C(=O)OCC)CC(C)(C)OC2 |  | inactive: 4.31% |
| CN(C)c1ccc(CN(C(=O)c2cccs2)C2CCS(=O)(=O)C2)cc1 (stereo unspecified) | inconclusive: 0.562 µM [inhibitor, full curve, poor fit] |  |
| CC(=O)Nc1nc(C)c(-c2csc(Nc3ccccn3)n2)s1 | inconclusive: 25.1 µM [inhibitor, single point] |  |
| COc1ccccc1OCC(=O)Nc1ccc(NC(=O)COc2ccccc2OC)cc1 | inconclusive: 2.24 µM [inhibitor, full curve, poor fit] |  |
| Cc1ccc(C(=O)Nc2nnc(NC(=S)Nc3ccccc3)s2)cc1 | inconclusive: 35.5 µM [inhibitor, single point] |  |
| O=C(NCc1cccnc1)C(=O)Nc1nc(-c2ccccc2)cs1 | inconclusive: 10 µM [inhibitor, partial curve, poor fit] |  |
| CN=C1S/C(=C\c2ccc(N3CCCC3)c(F)c2)C(=O)N1C |  | inactive: 4.53% [at 46.1 µM] |
| CCc1cc2c(nc1CC)CCN(CC/C(C)=N/O[C@@H](C)c1cc(-c3c(C)cc(C)cc3C)no1)C2 | inconclusive: 25.9 µM [inhibitor, single point] |  |
| COc1cc2c(cc1OC)C(c1cc3cc(OC)c(OC)cc3[nH]c1=O)N(C(=O)C1CC1)CC2 (stereo unspecified) | active: 13 µM |  |
| COc1cc(/C=N/NC(=O)C(=O)NCC2CCCO2)cc(Cl)c1O (stereo unspecified) | inconclusive: 4.47 µM [inhibitor, single point] |  |
| COc1ccc(OC)c(-c2csc(NC(=O)CSCc3c(C)noc3C)n2)c1 | inconclusive: 35.5 µM [inhibitor, single point] |  |
| Cn1cnnc1SC(C(=O)c1ccccc1)c1ccccc1 (stereo unspecified) | inconclusive: 0.562 µM [activator, full curve, poor fit] |  |
| N#CC1=C(N)Oc2ccc3ccc(O)cc3c2C1c1ccsc1 (stereo unspecified) | inconclusive: 35.5 µM [inhibitor, partial curve, poor fit] |  |
| CCOCCCNC(=O)c1[nH]c2cc(OC)ccc2c1Sc1ccccc1 | inconclusive: 17.8 µM [inhibitor, partial curve, poor fit] |  |

| Structure (SMILES) | Potency | activity change, negative = inhibition |
| --- | --- | --- |
| O=C(CN(c1ccc(Cl)cc1)S(=O)(=O)c1ccccc1)N/N=C/c1ccco1 |  | inactive: -22.8% |
| CCCCn1c(N)c(N(CC(C)C)C(=O)COC(=O)Cc2c(C)nc3ccccc3c2C)c(=O)[nH]c1=O | inconclusive: 1 µM [inhibitor, partial curve, poor fit] |  |
| Cc1cccc(-n2ccnc2SCC(=O)Nc2cc(C)on2)c1 | inconclusive: 0.1 µM [activator, full curve, poor fit] |  |
| CCCCN(CC)CCCNC(=O)C1CCN(c2nc3ccc(CC)cc3s2)CC1 | inconclusive: 12.6 µM [inhibitor, partial curve, poor fit] |  |
| O=C(COc1ccccc1)OC(C(=O)c1ccccc1)c1ccccc1 (stereo unspecified) |  | inactive: 0.247% |
| O=C(CNC(=O)c1cccs1)N/N=C/c1ccc(O)cc1O |  | inactive: -3.25% [at 46.1 µM] |
| Cc1oc(C(C)(C)C)cc1-c1cc(NC(=O)c2ccc([N+](=O)[O-])cc2)n[nH]1 | inconclusive: 35.5 µM [inhibitor, single point] |  |
| CCN1C(=NCc2cc(OC)c(OC)c(OC)c2)NC(c2ccccc2)C(C(=O)OC)=C1C (stereo unspecified) | inconclusive: 5.31 µM [activator, single point] |  |
| Cc1ccc(C(=O)COC(=O)c2cccc(NC(=O)c3ccc(Br)cc3)c2)cc1 |  | inactive: 25.8% [at 46.1 µM] |
| COc1ccccc1NC(=O)CSc1nc2sc(C)c(C)c2c(=O)n1C |  | inactive: -1.27% [at 46.1 µM] |
| O=C(OCC(=O)N1c2ccccc2Sc2ccccc21)C1CC(=O)N(Cc2ccco2)C1 (stereo unspecified) |  | inactive: 8.47% |
| COc1ccc(S(=O)(=O)Nc2ccc(S(=O)(=O)N3CCCCC3)cc2)cc1C |  | inactive: 12.5% |
| O=C(NCc1ccccc1)c1cc2ccccc2o1 | inconclusive: 0.316 µM [activator, partial curve, poor fit] |  |
| CC(=O)Nc1cccc(Oc2ncnc3scc(-c4ccccc4)c23)c1 | inconclusive: 11.2 µM [inhibitor, partial curve, poor fit] |  |
| c1ccc2c(c1)ncn2Cc1nnc2sc(-c3ccc4c(c3)OCO4)nn12 | inconclusive: 0.0517 µM [inhibitor, full curve, poor fit] |  |
| Cc1ccccc1NC(=S)N(C)CCc1ccccn1 |  | inactive: 23.7% |
| CCCCCCOc1ccc(OCC(O)CN2C(=O)NC(C)(C)C2=O)cc1 (stereo unspecified) |  | inactive: -1.48% |
| COC(=O)C1=C(C)N=c2s/c(=C/c3cccs3)c(=O)n2C1c1ccc(F)cc1 (stereo unspecified) | inconclusive: 16.4 µM [inhibitor, partial curve, poor fit] |  |
| CN1CCc2nc3ccc(Cl)cc3c(-c3ccccc3Cl)c2C1 | inconclusive: 5.62 µM [inhibitor, partial curve, poor fit] |  |
| CCCCNC(=O)CNC(=S)N(Cc1ccccc1F)C1CCCCC1 | inconclusive: 35.5 µM [inhibitor, single point] |  |
| CNCC(O)c1ccc(O)c(O)c1 (stereo unspecified) | inconclusive: 5.62 µM [inhibitor, single point] |  |
| CCN(CC)c1ccc(S(=O)(=O)N2CCCCC2)cc1NC(=O)C1CCC1 | inconclusive: 0.891 µM [inhibitor, full curve, poor fit] |  |

Reference: PubChem BioAssay AID540276 (National Center for Advancing Translational Sciences (NCATS), 2011)
